The other results are listed elsewhere or left out. Hit calls seldom repeat between salt and free forms of one compound.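 In K562 cells expressing nanoluciferase-fused kinases, luminescence was recorded at 4 h intervals between 2 and 18 h, normalized as percent of control with DMSO at 100% and a positive control at 0%. A significant (2 sigma) signal drop marks a time point as decreased. The authors' rule for a hit is not shown and takes in more than the number of time points.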
How the values were obtained:
Conditions in all cases: K562; 2-18 h
[1] = biological target: RET (UniProt P07949); assay: kinase-Nluc reporter destabilization hit call (1 = scored as downregulated) (binary); higher = compound decreases kinase abundance
[2] = biological target: RET_M918T (clone: RET_mut) (UniProt P07949); assay: as above
[3] = biological target: RIOK1 (UniProt Q9BRS2); assay: as above
[4] = biological target: RIPK1 (UniProt Q13546); assay: as above
[5] = biological target: RIPK2 (UniProt O43353); assay: as above
[6] = biological target: ROR2 (UniProt Q01974); assay: as above
[7] = biological target: RPS6KA1 (UniProt Q15418); assay: as above
[8] = biological target: SPHK1 (UniProt Q9NYA1); assay: as above
[9] = biological target: SRC (UniProt P12931); assay: as above
[10] = biological target: STK24 (UniProt Q9Y6E0); assay: as above
[11] = biological target: STK38 (UniProt Q15208); assay: as above
[12] = biological target: SYK (UniProt P43405); assay: as above
[13] = biological target: TEC (UniProt P42680); assay: as above
[14] = biological target: TYK2 (UniProt P29597); assay: as above
[15] = biological target: ULK3 (UniProt Q6PHR2); assay: as above
[16] = biological target: YES1 (UniProt P07947); assay: as above
[17] = biological target: ZAK (UniProt Q9NYL2); assay: as above
[18] = biological target: ZAP70 (UniProt P43403); assay: as above
[19] = biological target: ABL1 (UniProt P00519); assay: number of time points (of 5) at which kinase-Nluc abundance scored as decreased, DMSO-normalised (count); higher = more persistent destabilization
[20] = biological target: AKT1 (UniProt P31749); assay: as above

Amino acid sequences for entries named in this document (tags omitted). A change or cut given only in a name is not applied to a line headed by its entry.
UniProt P07949, whole entry, looked up: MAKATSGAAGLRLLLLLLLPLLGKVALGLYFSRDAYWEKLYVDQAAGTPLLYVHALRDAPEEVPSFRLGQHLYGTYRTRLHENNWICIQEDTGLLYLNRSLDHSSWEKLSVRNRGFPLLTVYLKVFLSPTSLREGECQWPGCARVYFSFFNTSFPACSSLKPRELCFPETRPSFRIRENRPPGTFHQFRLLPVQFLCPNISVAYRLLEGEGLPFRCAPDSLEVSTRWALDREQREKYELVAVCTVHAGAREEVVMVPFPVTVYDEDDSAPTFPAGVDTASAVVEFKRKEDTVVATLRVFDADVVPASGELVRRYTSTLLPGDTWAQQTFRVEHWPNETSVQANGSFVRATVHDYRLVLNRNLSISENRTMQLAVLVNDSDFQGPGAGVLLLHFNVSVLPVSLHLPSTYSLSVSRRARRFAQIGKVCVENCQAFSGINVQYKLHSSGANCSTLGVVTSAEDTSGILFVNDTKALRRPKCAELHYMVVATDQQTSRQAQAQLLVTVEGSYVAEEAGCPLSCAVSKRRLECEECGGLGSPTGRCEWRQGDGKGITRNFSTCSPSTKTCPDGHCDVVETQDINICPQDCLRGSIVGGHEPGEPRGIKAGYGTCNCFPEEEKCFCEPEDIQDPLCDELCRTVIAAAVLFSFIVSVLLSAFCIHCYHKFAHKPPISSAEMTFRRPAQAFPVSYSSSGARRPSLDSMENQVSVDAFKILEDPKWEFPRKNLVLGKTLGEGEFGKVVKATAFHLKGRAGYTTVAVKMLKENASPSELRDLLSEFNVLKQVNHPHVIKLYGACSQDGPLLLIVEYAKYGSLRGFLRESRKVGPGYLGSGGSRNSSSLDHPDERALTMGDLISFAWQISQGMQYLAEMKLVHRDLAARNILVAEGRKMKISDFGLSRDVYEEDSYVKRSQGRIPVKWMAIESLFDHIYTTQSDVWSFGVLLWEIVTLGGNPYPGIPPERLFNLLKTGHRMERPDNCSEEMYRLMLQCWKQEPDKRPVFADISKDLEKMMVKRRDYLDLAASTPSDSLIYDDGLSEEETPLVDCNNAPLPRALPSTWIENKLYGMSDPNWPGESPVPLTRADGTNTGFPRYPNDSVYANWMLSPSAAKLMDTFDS
UniProt Q9BRS2: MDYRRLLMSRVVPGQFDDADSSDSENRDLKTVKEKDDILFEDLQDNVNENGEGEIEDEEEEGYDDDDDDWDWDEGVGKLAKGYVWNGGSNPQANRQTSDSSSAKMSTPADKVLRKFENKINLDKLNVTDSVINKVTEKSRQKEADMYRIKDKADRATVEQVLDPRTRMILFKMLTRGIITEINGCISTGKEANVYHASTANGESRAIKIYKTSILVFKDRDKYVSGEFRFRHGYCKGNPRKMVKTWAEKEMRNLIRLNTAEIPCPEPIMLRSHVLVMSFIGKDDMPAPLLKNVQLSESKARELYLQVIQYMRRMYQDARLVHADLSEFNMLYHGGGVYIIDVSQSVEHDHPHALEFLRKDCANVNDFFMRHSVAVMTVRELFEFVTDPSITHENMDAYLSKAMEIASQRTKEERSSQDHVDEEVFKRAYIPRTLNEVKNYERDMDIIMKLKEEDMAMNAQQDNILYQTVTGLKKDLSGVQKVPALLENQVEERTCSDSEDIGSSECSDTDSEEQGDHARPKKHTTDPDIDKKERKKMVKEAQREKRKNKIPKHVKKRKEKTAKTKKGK
UniProt Q13546: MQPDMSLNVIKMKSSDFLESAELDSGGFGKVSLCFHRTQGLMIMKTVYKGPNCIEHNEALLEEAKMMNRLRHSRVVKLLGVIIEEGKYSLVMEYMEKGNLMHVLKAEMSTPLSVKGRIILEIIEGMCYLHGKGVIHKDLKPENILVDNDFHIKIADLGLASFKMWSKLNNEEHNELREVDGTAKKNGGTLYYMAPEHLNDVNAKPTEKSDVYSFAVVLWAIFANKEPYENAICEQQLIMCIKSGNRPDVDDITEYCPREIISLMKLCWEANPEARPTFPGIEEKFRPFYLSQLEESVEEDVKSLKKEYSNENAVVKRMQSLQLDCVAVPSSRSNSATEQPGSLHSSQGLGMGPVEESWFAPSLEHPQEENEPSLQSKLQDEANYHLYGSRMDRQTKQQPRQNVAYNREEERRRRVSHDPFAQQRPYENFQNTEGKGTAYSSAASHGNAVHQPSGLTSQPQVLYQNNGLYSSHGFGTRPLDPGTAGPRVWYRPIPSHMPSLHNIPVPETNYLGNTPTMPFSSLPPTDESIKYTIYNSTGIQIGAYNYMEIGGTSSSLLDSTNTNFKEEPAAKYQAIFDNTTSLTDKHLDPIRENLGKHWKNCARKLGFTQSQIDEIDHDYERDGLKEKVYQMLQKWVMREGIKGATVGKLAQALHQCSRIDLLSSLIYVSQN
UniProt Q01974, whole entry: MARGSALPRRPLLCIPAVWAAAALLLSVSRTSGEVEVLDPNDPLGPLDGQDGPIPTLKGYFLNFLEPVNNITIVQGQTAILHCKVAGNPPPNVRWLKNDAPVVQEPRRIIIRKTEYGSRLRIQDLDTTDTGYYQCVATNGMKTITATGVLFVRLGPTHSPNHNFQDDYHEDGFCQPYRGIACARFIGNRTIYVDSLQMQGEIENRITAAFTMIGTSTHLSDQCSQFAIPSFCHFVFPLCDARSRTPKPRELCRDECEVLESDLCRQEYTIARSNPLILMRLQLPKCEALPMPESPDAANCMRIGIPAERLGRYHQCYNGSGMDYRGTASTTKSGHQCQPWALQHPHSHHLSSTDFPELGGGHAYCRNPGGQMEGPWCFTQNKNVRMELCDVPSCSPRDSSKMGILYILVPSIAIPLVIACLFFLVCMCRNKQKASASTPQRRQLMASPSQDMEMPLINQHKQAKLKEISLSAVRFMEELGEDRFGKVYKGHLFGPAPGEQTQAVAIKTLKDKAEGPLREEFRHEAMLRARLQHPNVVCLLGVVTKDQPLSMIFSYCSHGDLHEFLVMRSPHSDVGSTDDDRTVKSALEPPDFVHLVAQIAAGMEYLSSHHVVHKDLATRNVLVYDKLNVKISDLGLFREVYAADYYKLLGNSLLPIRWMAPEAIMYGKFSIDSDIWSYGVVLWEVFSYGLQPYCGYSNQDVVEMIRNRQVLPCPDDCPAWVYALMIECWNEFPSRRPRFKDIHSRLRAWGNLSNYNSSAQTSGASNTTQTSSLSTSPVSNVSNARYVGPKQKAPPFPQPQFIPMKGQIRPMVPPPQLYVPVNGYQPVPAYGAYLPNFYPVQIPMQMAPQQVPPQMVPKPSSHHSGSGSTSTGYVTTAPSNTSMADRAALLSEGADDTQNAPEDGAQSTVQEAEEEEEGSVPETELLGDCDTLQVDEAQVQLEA
UniProt Q15418, whole entry: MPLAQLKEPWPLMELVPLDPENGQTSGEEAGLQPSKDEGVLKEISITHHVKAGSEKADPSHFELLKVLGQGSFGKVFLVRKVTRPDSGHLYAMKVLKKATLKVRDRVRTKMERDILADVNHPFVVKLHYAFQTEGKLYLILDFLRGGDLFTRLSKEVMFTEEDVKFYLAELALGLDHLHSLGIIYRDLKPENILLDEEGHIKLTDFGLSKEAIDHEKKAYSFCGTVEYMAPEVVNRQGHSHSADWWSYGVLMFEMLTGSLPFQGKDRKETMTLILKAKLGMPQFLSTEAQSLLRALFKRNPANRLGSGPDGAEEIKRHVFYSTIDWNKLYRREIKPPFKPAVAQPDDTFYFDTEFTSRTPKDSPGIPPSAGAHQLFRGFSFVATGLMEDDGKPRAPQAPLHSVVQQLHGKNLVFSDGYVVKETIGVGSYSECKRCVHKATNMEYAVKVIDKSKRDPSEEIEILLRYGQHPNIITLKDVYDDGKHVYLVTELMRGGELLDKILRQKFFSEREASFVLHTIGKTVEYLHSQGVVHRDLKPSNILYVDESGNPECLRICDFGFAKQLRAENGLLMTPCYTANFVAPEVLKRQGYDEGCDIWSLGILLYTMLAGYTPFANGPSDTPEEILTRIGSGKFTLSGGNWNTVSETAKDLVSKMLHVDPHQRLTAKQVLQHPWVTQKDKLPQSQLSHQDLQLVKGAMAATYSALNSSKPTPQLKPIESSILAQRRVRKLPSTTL
UniProt P29597: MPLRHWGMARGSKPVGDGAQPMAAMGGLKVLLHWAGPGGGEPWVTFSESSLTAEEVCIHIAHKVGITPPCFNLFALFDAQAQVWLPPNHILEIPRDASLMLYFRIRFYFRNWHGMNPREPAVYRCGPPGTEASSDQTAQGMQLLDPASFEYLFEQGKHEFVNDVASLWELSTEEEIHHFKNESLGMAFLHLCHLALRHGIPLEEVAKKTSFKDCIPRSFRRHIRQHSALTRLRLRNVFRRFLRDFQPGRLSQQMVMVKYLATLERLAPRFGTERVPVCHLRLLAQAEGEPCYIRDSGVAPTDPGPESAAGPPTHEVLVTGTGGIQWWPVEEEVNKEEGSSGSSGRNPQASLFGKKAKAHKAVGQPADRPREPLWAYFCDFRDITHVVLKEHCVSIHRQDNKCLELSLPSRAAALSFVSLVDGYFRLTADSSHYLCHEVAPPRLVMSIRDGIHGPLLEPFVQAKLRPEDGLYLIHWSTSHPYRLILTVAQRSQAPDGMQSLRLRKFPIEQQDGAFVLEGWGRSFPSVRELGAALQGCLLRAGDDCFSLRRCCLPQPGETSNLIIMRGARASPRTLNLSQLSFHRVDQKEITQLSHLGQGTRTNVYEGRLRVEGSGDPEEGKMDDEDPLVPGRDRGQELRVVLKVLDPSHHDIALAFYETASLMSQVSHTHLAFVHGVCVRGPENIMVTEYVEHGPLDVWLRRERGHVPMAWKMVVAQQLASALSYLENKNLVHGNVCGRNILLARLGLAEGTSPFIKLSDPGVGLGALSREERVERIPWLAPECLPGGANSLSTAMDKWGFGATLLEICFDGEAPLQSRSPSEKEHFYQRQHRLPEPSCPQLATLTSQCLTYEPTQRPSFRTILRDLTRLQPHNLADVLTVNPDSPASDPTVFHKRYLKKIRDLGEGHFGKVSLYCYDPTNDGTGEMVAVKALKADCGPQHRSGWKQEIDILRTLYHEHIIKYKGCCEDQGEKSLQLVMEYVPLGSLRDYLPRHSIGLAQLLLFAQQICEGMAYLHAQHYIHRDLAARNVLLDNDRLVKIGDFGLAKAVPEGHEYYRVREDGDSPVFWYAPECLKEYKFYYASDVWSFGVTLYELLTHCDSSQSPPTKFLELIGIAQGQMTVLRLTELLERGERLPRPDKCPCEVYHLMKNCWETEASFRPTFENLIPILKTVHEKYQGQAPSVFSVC
UniProt Q6PHR2: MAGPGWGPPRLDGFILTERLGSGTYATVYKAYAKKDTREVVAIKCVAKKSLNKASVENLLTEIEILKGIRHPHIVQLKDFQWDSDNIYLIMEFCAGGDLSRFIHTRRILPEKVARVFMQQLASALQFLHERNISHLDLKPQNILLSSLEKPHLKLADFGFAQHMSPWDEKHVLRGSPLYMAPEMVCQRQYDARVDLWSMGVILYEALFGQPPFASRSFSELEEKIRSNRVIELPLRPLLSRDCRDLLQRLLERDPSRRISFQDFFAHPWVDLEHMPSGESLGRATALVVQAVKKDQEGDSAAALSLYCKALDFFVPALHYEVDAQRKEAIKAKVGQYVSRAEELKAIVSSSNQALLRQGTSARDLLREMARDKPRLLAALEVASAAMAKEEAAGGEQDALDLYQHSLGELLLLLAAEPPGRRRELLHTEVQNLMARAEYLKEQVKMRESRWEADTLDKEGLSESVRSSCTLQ
UniProt P07947, whole entry, looked up: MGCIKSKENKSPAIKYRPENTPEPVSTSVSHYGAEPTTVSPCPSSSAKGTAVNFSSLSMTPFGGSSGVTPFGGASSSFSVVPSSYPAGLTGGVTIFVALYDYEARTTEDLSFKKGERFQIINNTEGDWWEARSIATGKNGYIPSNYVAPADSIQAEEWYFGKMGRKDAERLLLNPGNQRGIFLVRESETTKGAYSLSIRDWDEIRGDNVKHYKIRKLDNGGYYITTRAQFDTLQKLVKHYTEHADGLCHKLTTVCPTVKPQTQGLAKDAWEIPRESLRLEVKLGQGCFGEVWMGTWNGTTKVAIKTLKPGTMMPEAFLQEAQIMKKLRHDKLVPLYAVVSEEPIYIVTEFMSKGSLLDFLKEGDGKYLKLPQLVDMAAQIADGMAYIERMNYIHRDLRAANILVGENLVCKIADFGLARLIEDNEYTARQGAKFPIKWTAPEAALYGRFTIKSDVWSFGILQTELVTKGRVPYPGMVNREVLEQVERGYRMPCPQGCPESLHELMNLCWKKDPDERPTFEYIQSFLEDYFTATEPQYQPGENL

SMILES | kinase-Nluc reporter destabilization hit call [1] | kinase-Nluc reporter destabilization hit call [2] | kinase-Nluc reporter destabilization hit call [3] | kinase-Nluc reporter destabilization hit call [4] | kinase-Nluc reporter destabilization hit call [5] | kinase-Nluc reporter destabilization hit call [6] | kinase-Nluc reporter destabilization hit call [7] | kinase-Nluc reporter destabilization hit call [8] | kinase-Nluc reporter destabilization hit call [9] | kinase-Nluc reporter destabilization hit call [10] | kinase-Nluc reporter destabilization hit call [11] | kinase-Nluc reporter destabilization hit call [12] | kinase-Nluc reporter destabilization hit call [13] | kinase-Nluc reporter destabilization hit call [14] | kinase-Nluc reporter destabilization hit call [15] | kinase-Nluc reporter destabilization hit call [16] | kinase-Nluc reporter destabilization hit call [17] | kinase-Nluc reporter destabilization hit call [18] | number of time points [19] | number of time points [20]
CCS(=O)(=O)c1ncc(Cl)c(C(=O)N(Cc2ccc(Cl)cc2)Cc2ccco2)n1 (2.5 µM) | inactive: 0 | inactive: 0 | inactive: 0 | inactive: 0 | inactive: 0 | inactive: 0 | inactive: 0 | inactive: 0 | inactive: 0 | inactive: 0 | inactive: 0 | inactive: 0 | inactive: 0 | inactive: 0 | inactive: 0 | inactive: 0 | inactive: 0 | inactive: 0 | 0 | 0
COc1ccc(OC)c(C2C(C#N)=C(N)Oc3n[nH]c(-c4ccc5ccccc5c4)c32)c1 (stereo not given) (10 µM) | inactive: 0 | inactive: 0 | inactive: 0 | inactive: 0 | inactive: 0 | inactive: 0 | inactive: 0 | inactive: 0 | inactive: 0 | inactive: 0 | inactive: 0 | inactive: 0 | inactive: 0 | inactive: 0 | inactive: 0 | inactive: 0 | inactive: 0 | inactive: 0 | 0 | 0
COc1ccc(-c2ccc3c(N4CCOCC4)nc(N4C[C@@H](C)O[C@@H](C)C4)nc3n2)cc1CO (2.5 µM) | inactive: 0 | inactive: 0 | inactive: 0 | inactive: 0 | inactive: 0 | inactive: 0 | inactive: 0 | inactive: 0 | inactive: 0 | inactive: 0 | inactive: 0 | inactive: 0 | inactive: 0 | inactive: 0 | inactive: 0 | inactive: 0 | inactive: 0 | inactive: 0 | 0 | 0
Cn1cnc2c(F)c(Nc3ccc(Br)cc3Cl)c(C(=O)NOCCO)cc21 [Selumetinib] (10 µM) | inactive: 0 | inactive: 0 | inactive: 0 | inactive: 0 | inactive: 0 | inactive: 0 | inactive: 0 | inactive: 0 | inactive: 0 | inactive: 0 | inactive: 0 | inactive: 0 | inactive: 0 | inactive: 0 | inactive: 0 | inactive: 0 | inactive: 0 | inactive: 0 | 2 | 0
O=C(NCCN1CCCC1)c1cc(-c2ccc(CN3CCOCC3)cc2)nc2ccc(F)cc12 (10 µM) | inactive: 0 | inactive: 0 | inactive: 0 | inactive: 0 | inactive: 0 | inactive: 0 | inactive: 0 | inactive: 0 | inactive: 0 | inactive: 0 | inactive: 0 | inactive: 0 | inactive: 0 | inactive: 0 | inactive: 0 | inactive: 0 | inactive: 0 | inactive: 0 | 0 | 0
FC(F)(c1ccc2ncccc2c1)c1nnc2ccc(-c3ccncc3)nn12 (10 µM) | inactive: 0 | inactive: 0 | inactive: 0 | inactive: 0 | inactive: 0 | inactive: 0 | inactive: 0 | inactive: 0 | inactive: 0 | inactive: 0 | inactive: 0 | inactive: 0 | inactive: 0 | inactive: 0 | inactive: 0 | inactive: 0 | inactive: 0 | inactive: 0 | 0 | 0
Cc1cc2ncc(-c3ccc(O)c(O)c3)nc2cc1C [Tyrphostin AG1433] (10 µM) | inactive: 0 | inactive: 0 | inactive: 0 | inactive: 0 | active: 1 | inactive: 0 | inactive: 0 | inactive: 0 | inactive: 0 | inactive: 0 | inactive: 0 | inactive: 0 | inactive: 0 | inactive: 0 | inactive: 0 | inactive: 0 | inactive: 0 | inactive: 0 | 0 | 0
CC(=O)NC1CC(n2cnc(NC(=O)Cc3ccc4ccccc4c3)c2)C1 (stereo not given) (10 µM) | inactive: 0 | inactive: 0 | inactive: 0 | inactive: 0 | inactive: 0 | inactive: 0 | inactive: 0 | inactive: 0 | inactive: 0 | inactive: 0 | inactive: 0 | inactive: 0 | inactive: 0 | inactive: 0 | inactive: 0 | inactive: 0 | inactive: 0 | inactive: 0 | 0 | 0
CN(C)CCCOc1ccc(-c2ccc3ncc4c(c3c2)n(C2CCOCC2)c(=O)n4C)cn1 (2 µM) | inactive: 0 | inactive: 0 | inactive: 0 | inactive: 0 | inactive: 0 | inactive: 0 | inactive: 0 | inactive: 0 | inactive: 0 | inactive: 0 | inactive: 0 | inactive: 0 | inactive: 0 | inactive: 0 | inactive: 0 | inactive: 0 | inactive: 0 | inactive: 0 | 0 | 0
